Measured values published in PubChem BioAssay AID248 (DTP/NCI, 2004).
The list does not hold the whole screen: it gathers tests that were run many times, whatever their T/C, doses with no T/C, and many T/C values between a quarter and a half above the control. Other doses and runs of a compound stand elsewhere. T/C gives the treated animals as a percentage of the vehicle group. Some doses have a count of surviving animals in place of a T/C: the source holds a T/C of zero for them, seemingly a mark for toxic or unscored doses. Some doses without a T/C left all or most animals alive at the check, yet need not have been tolerated: survival well below the control is almost never listed, so the zero probably covers shortened survival too. Counts of survivors are from the toxicity check (mostly the fifth day) where no day follows; animals may have died later. Schedule codes are those of the source, taken here to give the interval after Q, in days (D) or hours (H), and the number of doses after X. Where survival is the endpoint, the PubChem record calls one and a half times the control and up active, and a quarter to a half above the control has no call in these data; cut-offs in other NCI protocols can differ. Some schedules carry Z or #; the key to these is not given. Some T/C values carry the count of animals alive at the toxicity check (mostly the fifth day); without a count, all were alive then.

System: L1210 leukemia ip in BDF1 mice, survival T/C
Test: NCI In Vivo Anticancer Drug Screen. Data for tumor model L1210 Leukemia (intraperitoneal) in B6D2F1 (BDF1) mice
Details: T/C endpoint: mean survival time, higher T/C = longer survival
[1] = dose: 200.0 mg/kg/injection, schedule: Q04DX003 (ip), vehicle: saline
[2] = dose: 400.0 mg/kg/injection, schedule: Q04DX003 (ip), vehicle: saline
[3] = dose: 100.0 mg/kg/injection, schedule: Q01DX009 (ip), vehicle: saline
[4] = dose: 400.0 mg/kg/injection, schedule: Q01DX001 (ip), vehicle: saline
[5] = dose: 400.0 mg/kg/injection, schedule: Q04DX002 (ip), vehicle: Klucel (hydroxypropylcellulose) (HPC)
[6] = dose: 400.0 mg/kg/injection, schedule: Q04DX003 (ip), vehicle: Klucel (hydroxypropylcellulose) (HPC)

`CC(=O)c1cc(O)c2ccccc2c1O` was tested, and the survivor count (dose: 400.0 mg/kg/injection, schedule: Q01DX001 (ip), vehicle: water) was 0 of 6.
`CCCN(CCC)C(=O)C(=O)OCC` was tested, and the survivor count (dose: 100.0 mg/kg/injection, schedule: Q04DX003 (ip), vehicle: saline) was 2 of 6, the survivor count [1] was 2 of 6 and the survivor count [2] was 0 of 6.
For `C=C1C(=O)OC2CCC3OC3CCC12` (stereo not drawn) (tested in a mixture with another compound), the survivor count [2] was 1 of 4.
With `CC1(C)N=C(N)N=C(N)N1c1ccc(CC(=O)Nc2cccc(S(=O)(=O)F)c2)cc1` the T/C (dose: 25.0 mg/kg/injection, schedule: Q#A X018 (ip), vehicle: saline) was 126 % of control, the T/C [3] was 125 % of control [5 of 6 alive] and the survivor count [3] was 3 of 6. The survivor count (dose: 200.0 mg/kg/injection, schedule: Q01DX009 (ip), vehicle: saline) was 2 of 6, the survivor count (dose: 300.0 mg/kg/injection, schedule: Q01DX009 (ip), vehicle: saline) was 0 of 6 and the survivor count [4] was 1 of 6. For the same compound, the survivor count (dose: 400.0 mg/kg/injection, schedule: Q01DX009 (ip), vehicle: saline) was 0 of 6.
For `COc1ccc(NC(=O)Oc2ccccc2C(N)=O)c(Cl)c1`, the survivor count [5] was 3 of 3.
For `O=C(COc1ccc(Cl)cc1Cl)Nc1ccc(NC(=O)COc2ccc(Cl)cc2Cl)cc1`, the survivor count (dose: 100.0 mg/kg/injection, schedule: Q04DX002 (ip), vehicle: Klucel (hydroxypropylcellulose) (HPC)) was 3 of 3, the survivor count (dose: 200.0 mg/kg/injection, schedule: Q04DX002 (ip), vehicle: Klucel (hydroxypropylcellulose) (HPC)) was 3 of 3 and the survivor count [5] was 3 of 3.
For `CCC1C2CC3C4N(C)c5ccccc5C45CC(C2C5O)N3C1O` (stereo not drawn), the survivor count (dose: 200.0 mg/kg/injection, schedule: Q01DX009 (ip), vehicle: saline with Tween-80) was 0 of 3.
With `CN(C)P1(=O)OCC(C(C)(C)C)CO1` (stereo not drawn) the survivor count [1] was 1 of 6 and the survivor count [2] was 0 of 6.
For `CCN(CC)CC(O)COc1ccccc1C` (stereo not drawn), the survivor count (dose: 200.0 mg/kg/injection, schedule: Q01DX001 (ip), vehicle: saline) was 0 of 4 and the survivor count [4] was 0 of 4.
With `CN/N=C/c1ccc([N+](=O)[O-])cc1` the survivor count (dose: 400.0 mg/kg/injection, schedule: Q04DX002 (ip), vehicle: DMSO) was 0 of 3.
With `CNC(=O)Oc1ccc(Br)cc1Br` the survivor count (dose: 400.0 mg/kg/injection, schedule: Q01DX009 (ip), vehicle: Klucel (hydroxypropylcellulose) (HPC)) was 2 of 6.
For `O=S(=O)(Nc1ccc(C(F)(F)F)cc1)c1ccc(C(F)(F)F)cc1`, the survivor count [6] was 0 of 6.
In the case of `O=C(O)C1C(C(=O)Nc2cc(C(F)(F)F)ccc2Cl)C2(Cl)C(Cl)=C(Cl)C1(Cl)C2(Cl)Cl` (stereo not drawn), the survivor count (dose: 25.0 mg/kg/injection, schedule: Q04DX003 (ip), vehicle: Klucel (hydroxypropylcellulose) (HPC)) is reported as 6 of 6, the survivor count (dose: 100.0 mg/kg/injection, schedule: Q01DX009 (ip), vehicle: Klucel (hydroxypropylcellulose) (HPC)) is reported as 4 of 6 and the survivor count (dose: 200.0 mg/kg/injection, schedule: Q04DX003 (ip), vehicle: Klucel (hydroxypropylcellulose) (HPC)) is reported as 5 of 6. For the same compound, the survivor count [6] was 0 of 6.
`CCc1c(Cl)c(C)cc(O)c1Cl` was tested, and the survivor count (dose: 100.0 mg/kg/injection, schedule: Q01DX009 (ip), vehicle: gum acacia) was 4 of 6.
In the case of `CCCCNC(C)(C)C(SSC(c1cccs1)C(C)(C)NCCCC)c1cccs1` (stereo not drawn), the survivor count (dose: 200.0 mg/kg/injection, schedule: Q04DX003 (ip), vehicle: saline sonified) is reported as 0 of 6 and the survivor count (dose: 400.0 mg/kg/injection, schedule: Q04DX003 (ip), vehicle: saline sonified) is reported as 0 of 6.
For `CCCCCCCCCCCC(=O)CC`, the survivor count (dose: 100.0 mg/kg/injection, schedule: Q01DX009 (ip), vehicle: saline with Tween-80) was 5 of 6.
For `COC(=O)c1ccccc1C=O`, the survivor count (dose: 400.0 mg/kg/injection, schedule: Q01DX001 (ip), vehicle: saline with Tween-80) was 0 of 6.
